Biological target: α1-AG (α1-acid glycoprotein)
Assay: Binding constant of basic drug to α1-AG by displacement of compound 1 (fluorescence probe method, Klotz formula)
Conditions: 0.1M phosphoric acid buffer pH 7.4; 3×10^-6 M α1-AG; compound 1 as probe
Description: Two different kinds of solutions, one containing α1 -AG and a compound of this invention listed above, the other containing α1 -AG, the compound of this invention, and a drug, are prepared to measure fluorescence intensity at the excitation. fluorescence wavelength, as shown in Table 2. According to the working curve made beforehand, the binding rate of the compound to α1 -AG in each solution is determined and the binding constant of a drug to α1-AG is calculated from the difference between the binding rates in the presence and the absence of a drug.
In the fluorescence cell made of quartz with a plug was placed the buffer solution of 0.1M phosphoric acid (2 ml) which pH is 7.4 and containig 1×10^-4 M α1 -AG, to which 5×10^-4 M aqueous solution of the compound 1 was added by 2 μl each with a microcylinder, which was prepared by dissolving about 3 mg of the compound 1 in 1N hydrochloric acid (1 ml), followed by diluting with water to make the total volume 200 times, and the resulting solution was mixed fully to determine fluorescence intensity at 508 nm (excitation wavelength: 418 nm).
For the buffer solution of 0.1M phosphoric acid (2 ml) which pH is 7.4 and containing 3×10^-6 M α1 -AG, the same procedure as in Example 1 was performed.
As for the other basic drugs shown in Table 3, binding constant were obtained according to the same manner as in Example 11.

| SMILES | log Kb (binding constant) |
| --- | --- |
| CC(C)NCC(O)COc1cccc2ccccc12 (centres unmarked) [propranolol] | 5.85 |
| CN1CCN(CCCN2c3ccccc3Sc3ccc(Cl)cc32)CC1 [prochlorperazine] | 6.24 |

Reference: patent US5132429A, “Benzotriazole derivatives and fluorescence-emitting reagents thereof” (priority 1988, dated 1992)
